{"sequences": {"note": "The chains behind the UniProt entries cited, without tags or fusion partners.", "UniProt Q12809, whole entry, looked up": "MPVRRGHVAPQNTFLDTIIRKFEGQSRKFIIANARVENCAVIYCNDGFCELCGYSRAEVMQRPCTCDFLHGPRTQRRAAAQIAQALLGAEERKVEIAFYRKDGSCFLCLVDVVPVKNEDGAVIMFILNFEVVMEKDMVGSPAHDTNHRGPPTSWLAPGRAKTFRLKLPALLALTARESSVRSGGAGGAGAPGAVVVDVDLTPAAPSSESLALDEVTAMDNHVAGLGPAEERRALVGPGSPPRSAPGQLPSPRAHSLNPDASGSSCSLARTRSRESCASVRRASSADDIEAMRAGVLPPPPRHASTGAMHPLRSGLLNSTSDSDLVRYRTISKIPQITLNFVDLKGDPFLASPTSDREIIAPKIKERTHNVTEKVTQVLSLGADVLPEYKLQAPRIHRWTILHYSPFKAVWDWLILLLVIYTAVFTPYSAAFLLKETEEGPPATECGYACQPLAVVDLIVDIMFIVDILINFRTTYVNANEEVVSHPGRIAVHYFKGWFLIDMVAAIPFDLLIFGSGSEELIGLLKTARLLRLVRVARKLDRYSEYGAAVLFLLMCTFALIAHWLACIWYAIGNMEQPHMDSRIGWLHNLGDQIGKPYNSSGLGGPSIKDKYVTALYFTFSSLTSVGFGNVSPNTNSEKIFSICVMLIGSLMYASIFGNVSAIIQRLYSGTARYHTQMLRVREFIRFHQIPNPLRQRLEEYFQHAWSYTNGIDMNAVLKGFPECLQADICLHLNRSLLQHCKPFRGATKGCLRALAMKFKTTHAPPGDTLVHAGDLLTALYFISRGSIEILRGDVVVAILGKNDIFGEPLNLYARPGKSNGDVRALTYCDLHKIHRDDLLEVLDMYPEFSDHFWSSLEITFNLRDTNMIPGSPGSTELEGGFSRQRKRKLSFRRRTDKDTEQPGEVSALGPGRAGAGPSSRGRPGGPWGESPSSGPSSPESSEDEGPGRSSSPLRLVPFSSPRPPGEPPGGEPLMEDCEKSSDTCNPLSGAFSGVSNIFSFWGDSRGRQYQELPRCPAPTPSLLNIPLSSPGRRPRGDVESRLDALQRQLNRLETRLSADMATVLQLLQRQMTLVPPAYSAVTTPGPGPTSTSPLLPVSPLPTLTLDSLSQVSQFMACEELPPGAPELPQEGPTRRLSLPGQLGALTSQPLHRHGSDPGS"}, "source": "PubChem BioAssay AID720551", "about": "(National Center for Advancing Translational Sciences (NCATS), 2013)", "note": "About 1,300 (0.38%) of roughly 340,000 compounds were called active. This list was built around the results that the source calls inconclusive (neither active nor inactive); the mix of calls is not that of the screen.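 Rule for the calls: active = maximum activity change below -70%; inconclusive = maximum activity change between -70% and -50%; inactive = maximum activity change above -50%.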 % is set by controls: 0 for no effect and ±100 for the full control effect.", "data": [{"molecular_target": "Voltage-gated inwardly rectifying potassium channel KCNH2 (Homo sapiens) (UniProt Q12809)", "test": "qHTS for Inhibitors of KCHN2 3.1: Wildtype qHTS", "settings": "U2OS, BacMam KCNH2, thallium flux FluxOr; at 1.84 µM, active compounds read low", "procedure,_shortened": "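U2OS cells were transduced with wild-type KCNH2 virus (2.03 x 10^8 / mL) for 4 h at room temperature, then cultured overnight at 37 C. Thallium flux was read with FluxOr dye. Rate constants were normalized to DMSO controls.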", "values": [{"compound": "Cc1ccc(-n2c3nc(=O)[nH]c(=O)c-3cc3c(C)nn(-c4ccccc4)c32)c(C)c1", "activity change": "active: -151%"}, {"compound": "CCOCCCN(C)C1CCN(C(=O)c2oc3ccccc3c2NC(=O)COc2cccc(C)c2)CC1", "activity change": "active: -82.2%"}, {"compound": "Cc1cc(C(=O)CSc2n[nH]c(N)n2)c(C)n1-c1ccc(F)cc1", "activity change": "inactive: 8.17%"}, {"compound": "O=C1C=CC(=O)N1c1cccc(-c2ccccc2)c1", "activity change": "inactive: 2.02%"}, {"compound": "Cc1ccc(Oc2ncnc(N)c2[N+](=O)[O-])cc1C", "activity change": "inactive: -6%"}, {"compound": "OC(CNCC1CCCO1)Cn1c2ccc(Cl)cc2c2cc(Cl)ccc21", "note": "(stereo not given)", "activity change": "inconclusive: -56.1%"}, {"compound": "CCN(CC)c1ccc(N=Nc2nn(C)c(C)c2[N+](=O)[O-])cc1", "activity change": "active: -125%"}, {"compound": "CCOc1cc2nc(-c3ccc(OC)c(OC)c3)nc(NCCCN3CCOCC3)c2cc1OC", "activity change": "active: -92.9%"}, {"compound": "COc1ccc(-c2nc3c(n2O)CCc2c-3no[n+]2[O-])cc1", "activity change": "inconclusive: -60.2%"}, {"compound": "CSC1=C(C#N)C(C)C2=C(CC(C)(C)CC2=O)N1", "note": "(stereo not given)", "activity change": "inactive: -11.5%"}, {"compound": "O=C(N/C(=C\\c1ccccc1)C(=O)N1CCOCC1)c1ccc(Br)o1", "activity change": "inactive: 0.893%"}, {"compound": "COc1cccc(C2c3[nH]c4ccccc4c3CCN2Cc2cccn2-c2ncccn2)c1", "note": "(stereo not given)", "activity change": "inconclusive: -67.4%"}, {"compound": "CCOC(=O)N1CCN(C(=O)CSc2nc(CC)nc3c2c(=O)n(C)c(=O)n3C)CC1", "activity change": "inconclusive: -63.3%"}, {"compound": "Cc1ccc(C)c(OC(=O)CN2C(=O)c3ccccc3C2=O)c1", "activity change": "active: -93.9%"}, {"compound": "C/C(=C\\c1cccs1)C(=O)c1c(C)cc(C)[nH]c1=O", "activity change": "inconclusive: -52.1%"}, {"compound": "COc1ccc(/C=N/N=C2/NC(=O)CC(C(=O)O)S2)cc1", "note": "(stereo not given)", "activity change": "inconclusive: -54.7%"}, {"compound": "CCCNC(=O)c1ccc(N2CCC3(CC2)CC(c2ccc(Cl)cc2)=NO3)c([N+](=O)[O-])c1", "activity change": "active: -85.9%"}, {"compound": "Clc1ccc(-c2csc(N/N=C/c3cccnc3)n2)c(Cl)c1", "activity change": "inconclusive: -56.7%"}, {"compound": "COc1ccccc1CCC(=O)N(C)CC(=O)Nc1ccc(Cl)c(C(F)(F)F)c1", "activity change": "inactive: -3.02%"}, {"compound": "CC(=O)c1cc(-c2ccccc2)n(CC(=O)Nc2ccc(C)c(C)c2)c1C", "activity change": "inactive: -4.71%"}, {"compound": "CCOC(=O)CNC(=O)N1C[C@H]2CON(C)[C@H]2C[C@H]1c1ccccc1Br", "activity change": "inactive: -0.763%"}, {"compound": "COc1ccc(C2NC(=O)NC(C)=C2[N+](=O)[O-])cc1OC", "note": "(stereo not given)", "activity change": "inconclusive: -70%"}, {"compound": "CC(C)c1ccc(NC(=S)NN2C(C)CCCC2C)cc1", "note": "(stereo not given)", "activity change": "inactive: 2.02%"}, {"compound": "Cc1nn(-c2ccccn2)c2nc(-c3cccs3)cc(C(=O)NCc3ccco3)c12", "activity change": "inconclusive: -59.5%"}, {"compound": "O=C(Nc1ccc(OCc2ccccc2)cc1)c1cccc([N+](=O)[O-])c1", "activity change": "inconclusive: -50.7%"}, {"compound": "O=c1c(/C=N/Nc2ccccc2)c(Sc2nnnn2-c2ccccc2)nc2ccccn12", "activity change": "inconclusive: -58.1%"}, {"compound": "CC(NC(=O)COC(=O)C1CCCCC1)c1ccccc1", "note": "(stereo not given)", "activity change": "inconclusive: -51.1%"}, {"compound": "COc1ccccc1N1C(=O)C2C3CC(c4ccccc4)C(C3)C2C1=O", "note": "(stereo not given)", "activity change": "inconclusive: -52.5%"}, {"compound": "Cc1ccc(S(=O)(=O)N2CCC(C(=O)OCC(=O)N3CCCC(C)C3)CC2)cc1C", "note": "(stereo not given)", "activity change": "inconclusive: -56.9%"}, {"compound": "COc1ccc(C2NCCC3(O)CCCCC23)c(OC)c1OC", "note": "(stereo not given)", "activity change": "active: -296%"}, {"compound": "COc1ccccc1NC(=O)C(C)N1CCN(C/C=C/c2ccccc2)CC1", "note": "(stereo not given)", "activity change": "active: -81.8%"}, {"compound": "Cc1ccc(S(=O)(=O)N2[C@@H](c3ccccc3)C(C(=O)O)=CC[C@H]2c2ccc3c(c2)OCO3)cc1", "activity change": "inconclusive: -69.3%"}, {"compound": "O=C(COC(=O)c1ccc(Cl)nc1)c1ccc2c(c1)OCCO2", "activity change": "active: -107%"}, {"compound": "CCOC(=O)C1(CCOc2ccccc2)CCN(Cc2cccs2)CC1", "activity change": "inconclusive: -53.3%"}, {"compound": "Cc1ncoc1C(=O)N1CCCC(CCC(=O)NCc2ccc(F)c(F)c2)C1", "note": "(stereo not given)", "activity change": "inconclusive: -60.3%"}, {"compound": "Cc1cc(O)c(NC(=S)NC(=O)c2ccc(-c3ccc(Cl)cc3)o2)cc1C", "activity change": "inactive: 4.33%"}, {"compound": "CCc1ccc(-c2nc(CN3CCC(C(=O)NCc4ccc(F)cc4)CC3)c(C)o2)cc1", "activity change": "inconclusive: -66.4%"}, {"compound": "COc1ccc(CNC(=O)C[C@@H]2C[C@H]3c4cc(NC(=O)C5CCC5)ccc4O[C@H]3[C@@H](CO)O2)cc1", "activity change": "inconclusive: -55.1%"}, {"compound": "COc1ccc(Cc2n[nH]c(=S)n2NC(=O)Nc2ccc(C)cc2)cc1", "activity change": "inconclusive: -53.1%"}, {"compound": "O=C(Nc1ccc(OC(F)F)cc1)Nc1cccc(C(F)(F)F)c1", "activity change": "inactive: -5.74%"}, {"compound": "CC(C)CC(=O)Nc1c2c(nn1-c1ccc(F)cc1)CS(=O)C2", "note": "(stereo not given)", "activity change": "inconclusive: -53.6%"}, {"compound": "O=C(Nc1ccccc1SC(=O)c1ccccc1)c1ccccc1", "activity change": "inactive: -0.375%"}, {"compound": "CCCN1Cc2cccc(C(=O)Nc3ccc(CN4CCCC4)cc3)c2C1=O", "activity change": "inconclusive: -50.1%"}, {"compound": "COc1cccc(-n2nc(C(N)=O)c(O)cc2=O)c1", "activity change": "inactive: -10.2%"}, {"compound": "CN(C)c1oc(/C=C/c2ccccc2)nc1C#N", "activity change": "active: -262%"}, {"compound": "Cc1c(SCCO)c(=O)[nH]c2cc3c(cc12)OCO3", "activity change": "inactive: -2.13%"}, {"compound": "Nc1ccc2nc(-c3ccccc3)c(-c3ccccc3)nc2c1", "activity change": "inactive: -3.24%"}, {"compound": "O=C(CSc1nc2ccccc2c(=O)n1CCCN1CCOCC1)Nc1cccc(S(=O)(=O)N2CCCCCC2)c1", "activity change": "inconclusive: -54%"}, {"compound": "CN/N=C(\\Cc1nc2ccccc2[nH]1)c1ccc([N+](=O)[O-])cc1", "activity change": "inconclusive: -51.8%"}, {"compound": "Cc1cccc(NC(=O)CN2CCC(C(=O)c3ccc4c(c3)OCCO4)CC2)c1", "activity change": "inactive: 6.29%"}, {"compound": "CC(Sc1nnc(-c2cccnc2)n1C)C(=O)N1CCOCC1", "note": "(stereo not given)", "activity change": "inactive: -0.465%"}, {"compound": "Cc1cc(C)n(-c2nc(SCCN(C)C)c3c4c(sc3n2)COC(C)(C)C4)n1", "activity change": "inconclusive: -52.4%"}, {"compound": "Cn1nc(C(=O)NCc2ccccc2)c2ccccc2c1=O", "activity change": "inactive: -24.1%"}, {"compound": "Cc1ccc([N+](=O)[O-])cc1S(=O)(=O)NCC1COc2ccccc2O1", "note": "(stereo not given)", "activity change": "inconclusive: -56.5%"}, {"compound": "N#CC(CCc1ccccc1[N+](=O)[O-])(CCc1ccccc1[N+](=O)[O-])C(N)=O", "activity change": "inconclusive: -54.5%"}, {"compound": "CCOc1cccc2sc(N(CCCN(C)C)C(=O)c3ccc(C(=O)c4ccccc4)cc3)nc12", "activity change": "inconclusive: -64.5%"}, {"compound": "CCN1CCN(C(CNS(=O)(=O)c2ccc(OC)c(C)c2)c2cccnc2)CC1", "note": "(stereo not given)", "activity change": "inconclusive: -66%"}, {"compound": "CCOc1ccc(NC(=O)CN(C)C2=NS(=O)(=O)c3ccccc32)cc1", "activity change": "inconclusive: -68.1%"}, {"compound": "Cc1ccc(C)c(C(=O)C(C)Sc2nc3nn(-c4ccccc4)c(=O)c-3c3n2CCCCC3)c1", "note": "(stereo not given)", "activity change": "inactive: -4.28%"}, {"compound": "CC(=O)C1=C(C)NC(SCC(N)=O)=C(C#N)C1CC(C)C", "note": "(stereo not given)", "activity change": "inactive: -21.8%"}, {"compound": "CCN(CC)CCCN(C(=O)c1ccc(OC)cc1)c1nc(-c2ccc(OC)cc2)cs1", "activity change": "inconclusive: -62.3%"}, {"compound": "Cc1onc(NC(=O)NC(=O)c2c(Cl)cccc2Cl)c1Br", "activity change": "inconclusive: -51.8%"}, {"compound": "Cc1ccc(S(=O)(=O)c2cc3c(=O)n4ccccc4nc3n(C3CCCCC3)c2=N)cc1", "activity change": "inconclusive: -61.2%"}, {"compound": "Cc1cc(Cl)ccc1N(CC(=O)N(C)Cc1ccccc1)S(C)(=O)=O", "activity change": "inconclusive: -56.7%"}, {"compound": "CC1CCN(CCCCOc2ccccc2F)CC1", "activity change": "inconclusive: -70%"}, {"compound": "COc1cccc(/C=N/c2nc3ccccc3[nH]2)c1O", "activity change": "inconclusive: -56.8%"}, {"compound": "CN(C)c1ccc(/C=C(/NC(=O)c2ccccc2)C(=O)N2CCCC2)cc1", "activity change": "inactive: -13.4%"}, {"compound": "Cc1nc2c(Cl)c(C)nn2c2c1CCC2", "activity change": "inconclusive: -67.3%"}, {"compound": "COc1cc(OC)cc(C(=O)NCc2ccc3[nH]c(C)cc3c2)c1", "activity change": "inactive: -6.14%"}, {"compound": "Cc1cccc(NC(=O)C(c2cccc([N+](=O)[O-])c2)N2CCCCC2)c1", "note": "(stereo not given)", "activity change": "inactive: -6.47%"}, {"compound": "O=C(CN1CCN(c2ccc([N+](=O)[O-])cc2)CC1)Nc1ccccn1", "activity change": "inconclusive: -66.5%"}, {"compound": "COc1cc(C(=O)Nc2cc(C(F)(F)F)ccc2N2CCOCC2)ccc1OCC(=O)N1CCOCC1", "activity change": "inconclusive: -50.2%"}, {"compound": "Clc1ccc(OCCCN2CCCC2)cc1Cl", "activity change": "inactive: 20.8%"}, {"compound": "Cc1ccc(C(=O)N/C(=C\\c2ccc(-c3cccc([N+](=O)[O-])c3)o2)C(=O)NC(C)(C)C)cc1", "activity change": "inconclusive: -51.9%"}, {"compound": "CC(C)CC(C(=O)Nc1oc(-c2ccccc2)c(-c2ccccc2)c1C#N)N1C(=O)c2ccccc2C1=O", "note": "(stereo not given)", "activity change": "inactive: -1.53%"}, {"compound": "N/C(=N\\OC(=O)c1ccc2ccccc2c1)c1ccccc1Cl", "activity change": "inactive: -21.2%"}, {"compound": "CN(C)c1cccc(N=C2C=C(N3CCOCC3)CC(C)(C)C2)c1", "activity change": "inconclusive: -58.2%"}, {"compound": "COc1ccc(C(=O)/C=C/c2ccc(F)cc2)c(OC(=O)c2ccc([N+](=O)[O-])cc2)c1", "activity change": "inconclusive: -55.3%"}, {"compound": "N#CCN(CC#N)C(=O)C1c2ccccc2Oc2ccccc21", "activity change": "inconclusive: -68.4%"}, {"compound": "COc1cc(OC)c(NC(=O)CC(C)=O)cc1Cl", "activity change": "inconclusive: -55.7%"}, {"compound": "CCCCn1c(N)c(N(CC(C)C)C(=O)C2CCN(S(=O)(=O)c3ccc(F)cc3)CC2)c(=O)[nH]c1=O", "activity change": "inconclusive: -63.7%"}, {"compound": "CC1CN(C(=S)Nc2ccc(S(N)(=O)=O)cc2)CC(C)O1", "note": "(stereo not given)", "activity change": "inconclusive: -52.7%"}, {"compound": "CCCN1CCN(CCNC(=O)Nc2cc(C)ccc2C)CC1", "activity change": "inactive: 19%"}, {"compound": "CC(C)CCc1c(O)nc(SCC(C)C)[nH]c1=O", "activity change": "inactive: 1.25%"}, {"compound": "CCN(CC)S(=O)(=O)c1ccc(N2CCOCC2)c(NC(=O)c2cccc3c(=O)c(C)c(-c4ccccc4)oc23)c1", "activity change": "inconclusive: -69.9%"}]}]}
